Where two headings read alike, the source gives them in different places. Results are given in words; binding and its absence hold for the method and conditions named. Binding seen in cells or lysates may run through a third protein. Some binding calls cover weakened binding; strength is not graded here. Blank lines part the entries; values can stand above or below the binder they belong to.
Tests used:
Experiment in all cases: split reporter
[1] = biological target: SHD1CRU (S. cerevisiae) (UniProt P23201)
[2] = biological target: SHD1CRU L51A (S. cerevisiae) (UniProt P23201)
[3] = biological target: SHD1CRU L48A (S. cerevisiae) (UniProt P23201)
[4] = biological target: SHD1CRU L101A (S. cerevisiae) (UniProt P23201)
[5] = biological target: SHD1_(K97D) (S. cerevisiae) (UniProt P23201)
[6] = biological target: Spa2CRU (S. cerevisiae) (UniProt P23201)
[7] = biological target: SHD1CRU L109A (S. cerevisiae) (UniProt P23201)
[8] = biological target: SHD1CRU (S. cerevisiae) (UniProt P23201); remark: listed apart in the source
[9] = biological target: T1, Ste5CRU (S. cerevisiae) (UniProt P32917)
T1 sequence: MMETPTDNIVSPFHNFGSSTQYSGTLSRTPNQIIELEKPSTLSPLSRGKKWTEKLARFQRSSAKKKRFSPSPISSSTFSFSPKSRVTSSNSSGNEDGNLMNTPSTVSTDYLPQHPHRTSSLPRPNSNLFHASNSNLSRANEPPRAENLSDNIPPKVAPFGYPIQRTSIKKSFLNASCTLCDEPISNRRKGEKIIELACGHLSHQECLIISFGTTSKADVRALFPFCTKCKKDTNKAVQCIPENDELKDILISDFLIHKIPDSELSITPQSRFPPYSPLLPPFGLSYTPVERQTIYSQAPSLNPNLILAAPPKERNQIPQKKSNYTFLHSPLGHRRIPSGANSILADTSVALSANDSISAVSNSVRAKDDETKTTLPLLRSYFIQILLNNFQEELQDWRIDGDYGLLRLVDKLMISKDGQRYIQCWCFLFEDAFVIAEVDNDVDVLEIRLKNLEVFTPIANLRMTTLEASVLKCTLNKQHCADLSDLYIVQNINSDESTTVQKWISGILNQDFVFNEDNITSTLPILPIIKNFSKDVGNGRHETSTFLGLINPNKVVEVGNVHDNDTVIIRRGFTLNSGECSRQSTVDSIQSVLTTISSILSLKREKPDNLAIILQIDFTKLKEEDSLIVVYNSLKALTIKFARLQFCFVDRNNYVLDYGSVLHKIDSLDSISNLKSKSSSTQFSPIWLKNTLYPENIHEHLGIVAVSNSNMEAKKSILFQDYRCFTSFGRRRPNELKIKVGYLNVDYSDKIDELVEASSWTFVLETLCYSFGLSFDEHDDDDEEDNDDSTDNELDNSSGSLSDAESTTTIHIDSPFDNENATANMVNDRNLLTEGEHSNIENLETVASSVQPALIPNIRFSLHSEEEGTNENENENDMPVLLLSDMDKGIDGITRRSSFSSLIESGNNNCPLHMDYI

Protein sequences, listed by entry. Tags and fused reporters are not part of them. Lines headed by an entry give the natural chain unless they say otherwise; changes in a name come on top. Chains listed by the source or under a name are the forms on record and can include a tag or linker. Residues count along the entry.
UniProt P23201: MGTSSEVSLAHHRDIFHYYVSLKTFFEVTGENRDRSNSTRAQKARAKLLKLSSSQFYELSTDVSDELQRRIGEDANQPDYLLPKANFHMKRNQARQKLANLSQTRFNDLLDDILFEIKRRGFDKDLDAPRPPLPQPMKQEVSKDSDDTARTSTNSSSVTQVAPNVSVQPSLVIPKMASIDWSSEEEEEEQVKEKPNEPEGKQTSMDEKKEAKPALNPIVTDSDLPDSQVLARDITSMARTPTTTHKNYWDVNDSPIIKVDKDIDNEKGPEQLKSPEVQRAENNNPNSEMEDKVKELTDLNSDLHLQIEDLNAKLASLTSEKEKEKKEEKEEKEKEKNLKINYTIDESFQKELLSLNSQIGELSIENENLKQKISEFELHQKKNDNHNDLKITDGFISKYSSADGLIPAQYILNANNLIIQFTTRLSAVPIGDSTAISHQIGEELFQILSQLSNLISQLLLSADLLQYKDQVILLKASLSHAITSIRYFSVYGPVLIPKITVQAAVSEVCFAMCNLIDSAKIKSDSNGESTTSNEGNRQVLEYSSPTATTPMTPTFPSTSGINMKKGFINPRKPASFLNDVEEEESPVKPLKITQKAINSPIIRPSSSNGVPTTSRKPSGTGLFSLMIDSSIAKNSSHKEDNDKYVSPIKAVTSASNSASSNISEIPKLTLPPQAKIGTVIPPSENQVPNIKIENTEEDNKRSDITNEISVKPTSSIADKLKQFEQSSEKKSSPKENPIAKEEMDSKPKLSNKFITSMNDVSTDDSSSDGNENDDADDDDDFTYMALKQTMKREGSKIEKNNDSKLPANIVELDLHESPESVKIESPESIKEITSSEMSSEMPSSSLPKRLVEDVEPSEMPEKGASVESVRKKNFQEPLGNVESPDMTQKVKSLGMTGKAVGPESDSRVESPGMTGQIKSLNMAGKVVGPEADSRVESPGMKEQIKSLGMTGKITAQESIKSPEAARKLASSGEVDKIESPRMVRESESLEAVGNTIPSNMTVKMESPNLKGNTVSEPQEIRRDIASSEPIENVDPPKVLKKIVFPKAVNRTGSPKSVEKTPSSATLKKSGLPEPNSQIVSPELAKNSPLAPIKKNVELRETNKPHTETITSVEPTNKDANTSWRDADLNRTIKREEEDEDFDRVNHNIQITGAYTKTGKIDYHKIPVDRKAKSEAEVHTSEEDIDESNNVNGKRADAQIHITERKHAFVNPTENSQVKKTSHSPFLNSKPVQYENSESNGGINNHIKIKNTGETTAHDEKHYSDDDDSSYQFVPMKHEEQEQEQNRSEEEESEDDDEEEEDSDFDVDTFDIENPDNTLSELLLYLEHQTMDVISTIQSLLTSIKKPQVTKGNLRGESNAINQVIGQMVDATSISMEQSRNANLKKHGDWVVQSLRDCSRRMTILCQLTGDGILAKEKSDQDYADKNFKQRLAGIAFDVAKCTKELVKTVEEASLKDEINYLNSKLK
SHD1CRU: residues 1-124 of P23201
SHD1CRU L51A (P23201, form named): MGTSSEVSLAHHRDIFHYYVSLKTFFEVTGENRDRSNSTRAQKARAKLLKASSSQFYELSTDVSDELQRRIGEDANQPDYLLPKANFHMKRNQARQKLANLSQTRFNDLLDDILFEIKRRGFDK
SHD1CRU L48A (P23201, form named): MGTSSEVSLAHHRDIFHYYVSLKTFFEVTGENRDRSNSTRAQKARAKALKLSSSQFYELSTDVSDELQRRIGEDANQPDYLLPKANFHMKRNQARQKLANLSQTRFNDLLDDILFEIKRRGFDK
SHD1CRU L101A (P23201, form named): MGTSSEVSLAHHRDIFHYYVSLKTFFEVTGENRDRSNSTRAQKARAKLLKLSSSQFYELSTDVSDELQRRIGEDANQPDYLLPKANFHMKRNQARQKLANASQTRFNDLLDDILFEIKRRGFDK
SHD1_(K97D) (P23201, form named): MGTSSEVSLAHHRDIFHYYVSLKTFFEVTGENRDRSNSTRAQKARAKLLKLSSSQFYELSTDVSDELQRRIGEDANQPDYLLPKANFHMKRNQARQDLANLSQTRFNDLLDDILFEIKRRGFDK
SHD1CRU L109A (P23201, form named): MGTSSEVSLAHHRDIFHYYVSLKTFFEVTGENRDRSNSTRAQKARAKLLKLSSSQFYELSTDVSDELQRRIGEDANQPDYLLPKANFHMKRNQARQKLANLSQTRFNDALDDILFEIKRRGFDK
UniProt P32490: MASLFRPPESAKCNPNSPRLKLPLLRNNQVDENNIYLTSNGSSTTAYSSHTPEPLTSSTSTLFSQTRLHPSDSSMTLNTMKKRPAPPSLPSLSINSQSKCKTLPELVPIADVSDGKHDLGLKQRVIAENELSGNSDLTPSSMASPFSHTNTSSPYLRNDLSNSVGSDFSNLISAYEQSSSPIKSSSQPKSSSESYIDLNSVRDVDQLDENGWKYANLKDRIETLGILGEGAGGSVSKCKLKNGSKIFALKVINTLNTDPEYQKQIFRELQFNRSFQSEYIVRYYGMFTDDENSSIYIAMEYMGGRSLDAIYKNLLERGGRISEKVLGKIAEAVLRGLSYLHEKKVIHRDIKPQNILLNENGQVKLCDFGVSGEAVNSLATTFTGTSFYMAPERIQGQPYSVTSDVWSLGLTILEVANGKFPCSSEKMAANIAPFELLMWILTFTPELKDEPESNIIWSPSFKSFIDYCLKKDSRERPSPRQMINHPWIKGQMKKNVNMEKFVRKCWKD
UniProt Q08729: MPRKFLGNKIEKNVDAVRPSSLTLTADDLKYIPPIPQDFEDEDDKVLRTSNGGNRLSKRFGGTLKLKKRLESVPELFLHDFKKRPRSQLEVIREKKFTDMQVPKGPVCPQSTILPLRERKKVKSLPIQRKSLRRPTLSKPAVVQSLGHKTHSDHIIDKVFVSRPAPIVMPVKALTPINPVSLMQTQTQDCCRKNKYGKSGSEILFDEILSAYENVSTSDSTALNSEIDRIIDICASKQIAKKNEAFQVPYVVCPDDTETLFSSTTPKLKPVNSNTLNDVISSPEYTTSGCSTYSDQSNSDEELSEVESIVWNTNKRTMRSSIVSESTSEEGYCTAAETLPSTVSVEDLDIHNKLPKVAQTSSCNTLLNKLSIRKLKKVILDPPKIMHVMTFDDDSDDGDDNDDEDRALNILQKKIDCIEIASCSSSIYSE
UniProt Q12317: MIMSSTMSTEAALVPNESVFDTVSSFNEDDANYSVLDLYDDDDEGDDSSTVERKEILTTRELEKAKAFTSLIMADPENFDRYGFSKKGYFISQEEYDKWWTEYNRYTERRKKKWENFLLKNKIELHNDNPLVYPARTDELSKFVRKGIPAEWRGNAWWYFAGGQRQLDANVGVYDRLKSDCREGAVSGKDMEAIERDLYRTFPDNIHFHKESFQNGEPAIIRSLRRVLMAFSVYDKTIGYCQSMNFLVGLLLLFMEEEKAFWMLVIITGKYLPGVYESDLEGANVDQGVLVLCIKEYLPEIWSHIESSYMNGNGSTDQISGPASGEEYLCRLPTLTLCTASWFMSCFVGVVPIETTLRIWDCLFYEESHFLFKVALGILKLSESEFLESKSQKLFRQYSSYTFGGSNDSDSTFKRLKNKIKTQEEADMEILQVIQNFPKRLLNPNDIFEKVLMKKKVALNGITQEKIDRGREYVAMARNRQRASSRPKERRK

[10] = biological target: Mkk1_(143–202)SHD1CRU (S. cerevisiae) (UniProt P32490+P23201)
[11] = biological target: Dse3_(181-240Δ208-212)SHD1CRU (S. cerevisiae) (UniProt Q08729+P23201)
[12] = biological target: Msb4_(22-81)-Spa2CRU (S. cerevisiae) (UniProt Q12317+P23201)
[13] = biological target: SHD1CRU (S. cerevisiae) (UniProt P23201); remark: listed apart in the source
[14] = biological target: Msb4_(22-81Δ35-39)-Spa2CRU (S. cerevisiae) (UniProt Q12317+P23201)
[15] = biological target: Spa2CRU (S. cerevisiae) (UniProt P23201); remark: listed apart in the source

- binding [1]: binds
- binding [2]: no binding
- binding [3]: no binding
- binding [4]: no binding
- binding [5]: binds
- binding [6]: no binding
- binding [7]: no binding
- binding [8]: binds
- binding [9]: binds
B1: Nub-Ste7 (protein, UniProt P06784 1-515)
chain: MFQRKTLQRRNLKGLNLNLHPDVGNNGQLQEKTETHQGQSRIEGHVMSNINAIQNNSNLFLRRGIKKKLTLDAFGDDQAISKPNTVVIQQPQNEPVLVLSSLSQSPCVSSSSSLSTPCIIDAYSNNFGLSPSSTNSTPSTIQGLSNIATPVENEHSISLPPLEESLSPAAADLKDTLSGTSNGNYIQLQDLVQLGKIGAGNSGTVVKALHVPDSKIVAKKTIPVEQNNSTIINQLVRELSIVKNVKPHENIITFYGAYYNQHINNEIIILMEYSDCGSLDKILSVYKRFVQRGTVSSKKTWFNELTISKIAYGVLNGLDHLYRQYKIIHRDIKPSNVLINSKGQIKLCDFGVSKKLINSIADTFVGTSTYMSPERIQGNVYSIKGDVWSLGLMIIELVTGEFPLGGHNDTPDGILDLLQRIVNEPSPRLPKDRIYSKEMTDFVNRCCIKNERERSSIHELLHHDLIMKYVSPSKDDKFRHWCRKIKSKIKEDKRIKREALDRAKLEKKQSERSTH

- binding [10]: no binding
- binding [1]: binds
- binding [2]: no binding
- binding [3]: no binding
- binding [4]: no binding
- binding [11]: binds
- binding [5]: no binding
- binding [7]: no binding
- binding [8]: binds
- binding [12]: no binding
- binding [13]: binds
- binding [14]: binds
- binding [15]: binds
B2: Nub-Msb3 (protein, UniProt P48566 1-633)
chain: MQNDQQRFSLQNRTVLAHPYKRLGGAFTVKSPSVPNFHDKMHSDHSSSDSALVNGSFRANDHRSVEPSCLGQASPSEHDGNLSVIDLYGDEVESQRAEGEDDDDNNGDNGNEDLEEVHSDDLDLVPDDDNRQRVELEGAASATSANSNGINNTHFDRYGFKKQNNYISEAEYDKWWVEYSQYCVRRKHKWQLLLEKSGLPVTDDSPSRFPSKSERLKRYVRKGIPAEWRGNAWWHFARGQEKLNKNKGVYSQLLRKMKQIKKQNPNEKQVQDLDIIERDLNRTFPDNIHFQSSLHNKEGPPIIKSLRRVLVAFSLYNPKIGYCQSMNFLAGLLLLFLDEERAFWMLVIITSRYLPGVHNINLEGVNIDQGVLMLCVKEYIPEVWSYIKPSIDHHQKNNKTFSPSNKKVLFNMQKNEFLYRLPPITLCTASWFMSCFVGVVPIETTLRIWDCLFYEESHFLFKVSLAVLKLSEHDLSKIKPRNNSLNYSWGSNLNQRGGSMGQEDSDMEIFQVIQTFPKTLLNPNEIFEKIIFKRRFNLNRLDQDEIDRCRKFVAAQRLKFKTYGELLGNSTSEADLPINDNTDNKGIHITSDAVNEALSSEVYGFKKSLAGVHWNNSIKEKVKQMRKKKDKGD

Reference: doi:10.1101/2025.06.12.659263
